# The list shows a part of the results.
# B1: FliC (Clostridium difficile) (protein)
# chain: MRVNTNVSALIANNQMGRNVNGQSKSMEKLSSGVRIKRAADDAAGLAISEKMRAQIKGLDQAGRNVQDGISVVQTAEGSLEETGNILQRMRTLSLQSANEINNTEEREKIADELTQLKDEIERISSSTEFNGKKLLDGTSSTIRLQVGASYGTNVSGTSNNNNEIKIQLVNTASIMASAGITTASIGSMKAGGTTGTDAAKTMVSSLDAALKSLNSSRAKLGAQQNRLESTQNNLNNTLENVTAAESRIRDTDVASEMVNLSKMNILVQASQSMLAQANQQPQGVLQLLG
# Columns and labels:
# Experiment in all cases: glycan array binding signal (z-score within array); higher = stronger binding
# Conditions in all cases: glycan notation: IUPAC condensed, linker removed
# [1] = biological target: Fuc(a1-2)Gal
# Summary of the method: (§1)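 Columns mapping to the same glycan were averaged after glycan names were converted to IUPAC-condensed notation. The data come from 3228 arrays in the Consortium for Functional Glycomics database, limited to those with an available protein sequence. Binding is reported as a within-array Z-score averaged across arrays of one protein sequence and across linkers.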
# [2] = biological target: Fuc(a1-2)Gal(b1-3)GalNAc
# Summary of the method: as §1
# [3] = biological target: Fuc(a1-2)Gal(b1-3)GalNAc(a1-3)[Fuc(a1-2)]Gal(b1-4)Glc
# Summary of the method: as §1
# [4] = biological target: Fuc(a1-2)Gal(b1-3)GalNAc(a1-3)[Fuc(a1-2)]Gal(b1-4)GlcNAc
# Summary of the method: as §1
# [5] = biological target: Fuc(a1-2)Gal(b1-3)GalNAc(b1-3)Gal
# Summary of the method: as §1
# [6] = biological target: Fuc(a1-2)Gal(b1-3)GalNAc(b1-3)Gal(a1-4)Gal(b1-4)Glc
# Summary of the method: as §1
# [7] = biological target: Fuc(a1-2)Gal(b1-3)GalNAc(b1-4)[Neu5Ac(a2-3)]Gal(b1-4)Glc
# Summary of the method: as §1
# [8] = biological target: Fuc(a1-2)Gal(b1-3)GlcNAc
# Summary of the method: as §1
# [9] = biological target: Fuc(a1-2)Gal(b1-3)GlcNAc(b1-2)Man(a1-3)[Fuc(a1-2)Gal(b1-3)GlcNAc(b1-2)Man(a1-6)]Man(b1-4)GlcNAc(b1-4)GlcNAc
# Summary of the method: as §1
# [10] = biological target: Fuc(a1-2)Gal(b1-3)GlcNAc(b1-2)Man(a1-3)[Fuc(a1-2)Gal(b1-3)GlcNAc(b1-2)Man(a1-6)]Man(b1-4)GlcNAc(b1-4)[Fuc(a1-6)]GlcNAc
# Summary of the method: as §1
# [11] = biological target: Fuc(a1-2)Gal(b1-3)GlcNAc(b1-3)Gal(b1-4)Glc
# Summary of the method: as §1
# [12] = biological target: Fuc(a1-2)Gal(b1-3)GlcNAc(b1-3)GalNAc
# Summary of the method: as §1
# [13] = biological target: Fuc(a1-2)Gal(b1-3)GlcNAc(b1-3)[Fuc(a1-2)Gal(b1-3)GlcNAc(b1-6)]GalNAc
# Summary of the method: as §1
# [14] = biological target: Fuc(a1-2)Gal(b1-3)GlcNAc(b1-3)[Gal(b1-4)GlcNAc(b1-6)]Gal(b1-4)Glc
# Summary of the method: as §1
# [15] = biological target: Fuc(a1-2)Gal(b1-3)GlcNAc(b1-3)[Neu5Ac(a2-6)Gal(b1-4)GlcNAc(b1-6)]Gal(b1-4)Glc
# Summary of the method: as §1
# [16] = biological target: Fuc(a1-2)Gal(b1-3)GlcNAc6S
# Summary of the method: as §1
# [17] = biological target: Fuc(a1-2)Gal(b1-3)[Fuc(a1-4)]GlcNAc
# Summary of the method: as §1
# [18] = biological target: Fuc(a1-2)Gal(b1-3)[Fuc(a1-4)]GlcNAc(b1-2)Man(a1-3)[Fuc(a1-2)Gal(b1-3)[Fuc(a1-4)]GlcNAc(b1-2)Man(a1-3)]Man(b1-4)GlcNAc(b1-4)GlcNAc
# Summary of the method: as §1
# [19] = biological target: Fuc(a1-2)Gal(b1-3)[Fuc(a1-4)]GlcNAc(b1-2)Man(a1-3)[Fuc(a1-2)Gal(b1-3)[Fuc(a1-4)]GlcNAc(b1-2)Man(a1-6)]Man(b1-4)GlcNAc(b1-4)[Fuc(a1-6)]GlcNAc(b1-4)[Fuc(a1-6)]GlcNAc
# Summary of the method: as §1
# [20] = biological target: Fuc(a1-2)Gal(b1-3)[Fuc(a1-4)]GlcNAc(b1-3)[Fuc(a1-3)[Gal(b1-4)]GlcNAc(b1-6)]Gal(b1-4)Glc
# Summary of the method: as §1
# [21] = biological target: Fuc(a1-2)Gal(b1-3)[Fuc(a1-4)]GlcNAc(b1-3)[Gal(b1-4)GlcNAc(b1-6)]Gal(b1-4)Glc
# Summary of the method: as §1
# [22] = biological target: Fuc(a1-2)Gal(b1-4)Glc
# Summary of the method: as §1
# [23] = biological target: Fuc(a1-2)Gal(b1-4)Glc6S
# Summary of the method: as §1
# [24] = biological target: Fuc(a1-2)Gal(b1-4)GlcNAc
# Summary of the method: as §1
# [25] = biological target: Fuc(a1-2)Gal(b1-4)GlcNAc(b1-2)Man
# Summary of the method: as §1
# [26] = biological target: Fuc(a1-2)Gal(b1-4)GlcNAc(b1-2)Man(a1-3)[Fuc(a1-2)Gal(b1-4)GlcNAc(b1-2)Man(a1-6)]Man(b1-4)GlcNAc(b1-4)GlcNAc
# Summary of the method: as §1
# [27] = biological target: Fuc(a1-2)Gal(b1-4)GlcNAc(b1-2)Man(a1-3)[Fuc(a1-2)Gal(b1-4)GlcNAc(b1-2)Man(a1-6)]Man(b1-4)GlcNAc(b1-4)[Fuc(a1-6)]GlcNAc
# Summary of the method: as §1
# [28] = biological target: Fuc(a1-2)Gal(b1-4)GlcNAc(b1-2)[Fuc(a1-2)Gal(b1-4)GlcNAc(b1-4)]Man(a1-3)[Fuc(a1-2)Gal(b1-4)GlcNAc(b1-2)Man(a1-6)]Man(b1-4)GlcNAc(b1-4)GlcNAc
# Summary of the method: as §1
# [29] = biological target: Fuc(a1-2)Gal(b1-4)GlcNAc(b1-3)Gal(b1-4)GlcNAc
# Summary of the method: as §1
# [30] = biological target: Fuc(a1-2)Gal(b1-4)GlcNAc(b1-3)Gal(b1-4)GlcNAc(b1-2)Man(a1-3)[Fuc(a1-2)Gal(b1-4)GlcNAc(b1-3)Gal(b1-4)GlcNAc(b1-2)Man(a1-6)]Man(b1-4)GlcNAc(b1-4)GlcNAc
# Summary of the method: as §1
binder,measurement,setting,value
B1,glycan array binding signal (z-score),[1],0.477
same,glycan array binding signal (z-score),[2],-0.281
same,glycan array binding signal (z-score),[3],0.883
same,glycan array binding signal (z-score),[4],-0.57
same,glycan array binding signal (z-score),[5],-0.239
same,glycan array binding signal (z-score),[6],0.652
same,glycan array binding signal (z-score),[7],-0.174
same,glycan array binding signal (z-score),[8],-0.085
same,glycan array binding signal (z-score),[9],1.16
same,glycan array binding signal (z-score),[10],0.279
same,glycan array binding signal (z-score),[11],-0.113
same,glycan array binding signal (z-score),[12],0.089
same,glycan array binding signal (z-score),[13],0.636
same,glycan array binding signal (z-score),[14],-0.799
same,glycan array binding signal (z-score),[15],-0.434
same,glycan array binding signal (z-score),[16],-0.565
same,glycan array binding signal (z-score),[17],-0.442
same,glycan array binding signal (z-score),[18],0.721
same,glycan array binding signal (z-score),[19],1.31
same,glycan array binding signal (z-score),[20],-0.396
same,glycan array binding signal (z-score),[21],-0.268
same,glycan array binding signal (z-score),[22],-0.639
same,glycan array binding signal (z-score),[23],-0.289
same,glycan array binding signal (z-score),[24],0.085
same,glycan array binding signal (z-score),[25],0.651
same,glycan array binding signal (z-score),[26],0.131
same,glycan array binding signal (z-score),[27],1.2
same,glycan array binding signal (z-score),[28],-0.21
same,glycan array binding signal (z-score),[29],-0.355
same,glycan array binding signal (z-score),[30],0.257

# Shown tab-delimited: entries from further up.
binder	measurement	setting	value
B1	glycan array binding signal (z-score)	[13]	0.636
same	glycan array binding signal (z-score)	[14]	-0.799

# Reference: the supplement of paper PMC8728848
